{"source": "PubChem BioAssay AID445", "about": "(National Center for Advancing Translational Sciences (NCATS), 2006)", "note": "The list shows a part of the results. The main result of the screen is listed elsewhere. These columns were measured beside it and carry no call. Compounds called inactive in the main read-out are mostly missing here. Words in brackets tell the shape of the fitted curve; partial curves, single points and poor fits give uncertain potencies."}
{"assay": "IkB Signaling", "settings": "ABC-DLBCL IkBa-CBG/CBR dual luciferase ratio (green luciferase fused to IkBa over red control in OCI-Ly3 lymphoma cells), 4 h; measured here: control luc red channel unless noted", "in_short": "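Curves were fitted separately to fusion (green), unfused (red) and ratio luminescence, then classed by r2, magnitude and activity. Cells: OCI-Ly3, 4 h compound plus doxycycline at 37C; 10 uM MG-132 defined full response.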"}
{"smiles": "Cc1ccc(S(=O)(=O)N2CCC(n3c(C)nc4cccnc43)CC2)c(C)c1", "AC50": "31.6 µM [falling, partial curve]"}
{"smiles": "CCOc1ccc(CCNC(=O)c2cc3sc(CC)cc3n2C)cc1OCC", "AC50": "31.6 µM [falling, single point]"}
{"smiles": "Cc1[nH]c2ccccc2c1SCCNC(=O)c1ccccc1F", "AC50": "39.8 µM [falling, single point]"}
{"smiles": "Cc1ccc2oc(-c3cc(NC(=O)/C=C/c4ccco4)ccc3Cl)nc2c1", "AC50": "15.8 µM [falling, partial curve]"}
{"smiles": "CC(=O)Nc1nonc1-c1nc2ccccc2n1Cc1ccccc1Br", "AC50": "0.501 µM [rising, full curve]"}
{"smiles": "COc1ccc(NC(=O)CCc2c(C)nc3c(-c4ccc(F)cc4)c(C)nn3c2C)c(OC)c1", "AC50": "10 µM [falling, partial curve, poor fit]"}
{"smiles": "Cc1ccccc1CN1CCCN(CC(=O)Nc2ccc3c(c2)OCCO3)S1(=O)=O", "AC50": "31.6 µM [falling, single point]"}
{"smiles": "COc1ccc(C2=[N+]([O-])C(C)(C)N(O)C2(C)C)cc1", "AC50": "20 µM [rising, partial curve]"}
{"smiles": "CC(NC(=O)c1ccco1)C(c1cccs1)N1CCN(c2ccccc2F)CC1", "note": "(centres undefined)", "AC50": "20 µM [falling, partial curve]"}
{"smiles": "CCOc1ccc(NC(=O)c2c(NC(=O)c3cccs3)sc3c2CCC(C(C)(C)C)C3)cc1", "note": "(centres undefined)", "AC50": "10 µM [falling, partial curve]"}
{"smiles": "COc1ccccc1NC(=O)c1cc(S(=O)(=O)NCCC2=CCCCC2)ccc1F", "AC50": "12.6 µM [falling, partial curve]"}
{"smiles": "O=C(NCc1cccc(Cl)c1)C1CCCN(c2ncnc3onc(-c4ccc(F)cc4)c23)C1", "note": "(centres undefined)", "AC50": "7.94 µM [falling, partial curve]"}
{"smiles": "CCn1c(=O)cc(SCC(=O)N2CCN(c3ccccc3F)CC2)c2ccccc21", "AC50": "15.8 µM [falling, partial curve]"}
{"smiles": "O=C(CSc1nnc2[nH]c(=O)cc(-c3ccccc3)n12)Nc1cc(C(F)(F)F)ccc1Cl", "AC50": "15.8 µM [falling, partial curve]"}
{"smiles": "Cc1cc(C)cc(N2CCn3c2nc2c3c(=O)n(CCCc3ccccc3)c(=O)n2C)c1", "AC50": "6.31 µM [falling, partial curve]"}
{"smiles": "COc1ccc2[nH]c3nc(SC(C)C)nnc3c2c1", "AC50": "6.31 µM [falling, partial curve]"}
{"smiles": "Cc1ccc(CNC(=O)CCCn2c(=O)c3ccccc3n(Cc3ccc(Cl)cc3)c2=O)cc1", "AC50": "3.16 µM [falling, single point]"}
{"smiles": "Cc1ccc(CNC(=O)CCC(=O)N2CCSc3ccccc32)cc1", "AC50": "39.8 µM [falling, single point]"}
{"smiles": "CCOc1ccc(-c2noc(CSc3nnc(Cc4ccccc4)n3-c3cccc(C)c3)n2)cc1", "AC50": "12.6 µM [falling, partial curve]"}
{"smiles": "Cc1ccc(-c2nc3cc(C(C)C)ccc3o2)cc1NC(=O)c1cc([N+](=O)[O-])ccc1N1CCOCC1", "AC50": "1 µM [falling, full curve]"}
{"smiles": "CNC(=O)C1CCN(c2nc3ccccc3nc2C(F)(F)F)CC1", "AC50": "12.6 µM [rising, partial curve]"}
{"smiles": "COc1ccc(N(CC(=O)Nc2nc3ccc(C)cc3s2)S(=O)(=O)c2c(C)nn(C)c2C)cc1", "AC50": "6.31 µM [falling, partial curve]"}
{"smiles": "CCc1ccc(NC(=O)N2CCN(C(=O)c3nsc4ccccc34)CC2)cc1", "AC50": "39.8 µM [falling, single point]"}
{"smiles": "O=C(Nc1ccc(SC(F)F)cc1)c1ccc2nccnc2c1", "AC50": "3.16 µM [falling, full curve]"}
{"smiles": "COc1cc(Cl)c(C)cc1NC(=O)c1cnc2c(-c3cccc(C)c3)c(C)nn2c1C", "AC50": "12.6 µM [falling, single point]"}
{"smiles": "Cc1ccsc1CN1CCc2nc(N3CCN(c4ccccc4F)CC3)ncc2C1", "AC50": "12.6 µM [falling, partial curve]"}
{"smiles": "CNC(=O)c1ccc(CSc2nc3ccncc3n2Cc2ccc(C)cc2)cc1", "AC50": "31.6 µM [falling, partial curve]"}
{"smiles": "Cc1ccn2c(Nc3ccccc3C)c(-c3ccccc3)nc2c1", "AC50": "39.8 µM [falling, single point]"}
{"smiles": "COc1ccc(CCNc2ncnc3c2oc2ccccc23)cc1OC", "AC50": "3.98 µM [falling, full curve]"}
{"smiles": "O=C(Nc1ccc2nc(SCC(=O)N3CCOCC3)sc2c1)c1ccccc1Cl", "AC50": "20 µM [falling, partial curve]"}
{"smiles": "Cc1cccc(OCC(=O)Nc2ccccc2OCc2cc(=O)n3cc(C)ccc3n2)c1", "AC50": "0.0251 µM [falling, full curve]"}
{"smiles": "Cc1ccc(NCc2cccn2-c2nnc(N3CCC(C(=O)NCc4ccc(F)cc4)CC3)s2)cc1", "AC50": "5.01 µM [falling, partial curve]"}
{"smiles": "CCc1cccc(C)c1NS(=O)(=O)c1ccc(-c2cc(C)no2)s1", "AC50": "0.631 µM [rising, full curve]"}
{"smiles": "Cc1cccc(NC(=O)c2c(N)sc3c2CCC(C)C3)c1", "note": "(centres undefined)", "AC50": "15.8 µM [falling, partial curve]"}
{"smiles": "O=C(O)CCc1ccc(-c2ccc(Br)cc2)n1Cc1ccco1", "AC50": "12.6 µM [falling, partial curve]"}
{"smiles": "Cc1ccccc1Nc1c(-c2ccc(N3CCOCC3)cc2)nc2ccc(Cl)cn12", "AC50": "39.8 µM [falling, single point]"}
{"smiles": "N#Cc1nc(/C=C/c2ccc(F)cc2)oc1NC1CCCCC1", "AC50": "3.16 µM [rising, single point]"}
{"smiles": "CCOc1ccc(CCNC(=O)CN2CCN(Cc3ccc(F)cc3)C2=O)cc1OCC", "AC50": "20 µM [falling, single point]"}
{"smiles": "COc1ccc(C(=O)NCC(c2ccco2)S(=O)(=O)c2cccs2)cc1", "note": "(centres undefined)", "AC50": "0.631 µM [falling, partial curve]"}
{"smiles": "COc1ccc(N(C)C(=O)C2CCN(S(=O)(=O)c3cc(Br)cc4c3N(C(C)=O)CC4)CC2)cc1", "AC50": "25.1 µM [falling, single point]"}
{"smiles": "O=C(Nc1ccc2nc(SCC(=O)N3CCOCC3)sc2c1)c1ccc(Cl)cc1", "AC50": "7.94 µM [falling, partial curve]"}
{"smiles": "CCN(Cc1ccccc1)C(=O)C(CC(C)C)NS(=O)(=O)c1ccc2c(c1)CCN2C(C)=O", "note": "(centres undefined)", "AC50": "20 µM [falling, single point]"}
{"smiles": "Cc1cccc(N2CCN(C(=O)c3nn(C)c4c3CS(=O)(=O)c3ccccc3-4)CC2C)c1", "note": "(centres undefined)", "AC50": "25.1 µM [falling, single point]"}
{"smiles": "Cc1ccc(-n2c(=O)c3ccccc3n(CC(=O)Nc3cccc(C(F)(F)F)c3)c2=O)cc1", "AC50": "25.1 µM [falling, single point]"}
{"smiles": "O=C(Cn1c(=O)n(-c2ccccc2)c(=O)c2sc3ccccc3c21)NC1CCCC1", "AC50": "25.1 µM [falling, single point]"}
{"smiles": "COc1cccc(N2CCN(c3ncnc4onc(-c5ccc(Cl)cc5)c34)CC2)c1", "AC50": "3.16 µM [rising, partial curve]"}
{"smiles": "Cc1ccc(C)c(Nc2nn3c(=O)c4ccc(C(=O)NCc5cccs5)cc4nc3s2)c1", "AC50": "31.6 µM [falling, single point]"}
{"smiles": "O=C(CN1C(=O)CC(c2ccc(F)cc2)=Nc2ccccc21)NCc1ccccc1Cl", "AC50": "25.1 µM [falling, single point]"}
{"smiles": "CSc1ccc(CNC(=O)Cn2ccc3cc(S(=O)(=O)N4CCCC4)ccc32)cc1", "AC50": "15.8 µM [falling, partial curve]"}
{"smiles": "O=C(Nc1ccc(-c2nc3ccccc3o2)cc1)C1CCCO1", "note": "(centres undefined)", "AC50": "7.94 µM [falling, partial curve]"}
{"smiles": "CN(C)c1ccc(C(=O)NCc2ccc3c(c2)CCN3C(=O)c2ccccc2)cc1", "AC50": "0.00631 µM [rising, full curve, poor fit]"}
{"smiles": "COc1ccc(-c2nnn(CC(=O)c3c[nH]c4ccccc34)n2)cc1OC", "AC50": "25.1 µM [falling, single point]"}
{"smiles": "CN(C)c1ccc(CNC(=O)c2sc3ncccc3c2-n2cccc2)cc1", "AC50": "25.1 µM [falling, single point]"}
{"smiles": "Cc1ccnc(NC(=O)Nc2ccc(F)cc2)c1", "AC50": "7.94 µM [falling, partial curve]"}
{"smiles": "Cc1ccc2cc(CN(Cc3ccco3)C(=O)c3cccs3)c(=O)[nH]c2c1", "AC50": "20 µM [falling, partial curve]"}
{"smiles": "COc1cc(Cl)c(NS(=O)(=O)c2ccc(-c3coc(C)n3)cc2)c(OC)c1", "AC50": "3.16 µM [falling, partial curve]"}
{"smiles": "Cc1ccc(-c2cc(C(F)(F)F)c(C#N)c(SCC(=O)Nc3ccccc3F)n2)cc1", "AC50": "15.8 µM [falling, partial curve]"}
{"smiles": "COc1cccc(CNC(=O)CN2C(=O)CSc3ccc(S(=O)(=O)N4CCCC4)cc32)c1", "AC50": "39.8 µM [falling, single point]"}
{"smiles": "CCCN(CCC)CCCNC(=O)c1cn(CC)c2ccc(S(=O)(=O)N3CCc4ccccc4C3)cc2c1=O", "AC50": "15.8 µM [falling, single point]"}
{"smiles": "COCCCNc1nc2ccccc2nc1NS(=O)(=O)c1cccs1", "AC50": "7.94 µM [falling, partial curve]"}
{"smiles": "Cc1ccc(Nc2c(-c3ccc(N4CCOCC4)cc3)nc3ncccn23)cc1C", "AC50": "20 µM [falling, single point]"}
{"smiles": "CCOC(=O)c1ccc2c(c1)N(CC(=O)Nc1ccc(CC)cc1)C(=O)c1ccccc1S2", "AC50": "1 µM [falling, full curve]"}
{"smiles": "CCN(c1ccc(C)cc1C)S(=O)(=O)c1nnc(NC(=O)c2ccccc2OC)s1", "AC50": "31.6 µM [falling, single point]"}
{"smiles": "CCOC(=O)c1oc2ccc(S(=O)(=O)n3nc(-c4cc(OCC)c(OCC)c(OCC)c4)cc3N)cc2c1C", "AC50": "15.8 µM [falling, partial curve]"}
